PubChem BioAssay AID720710 – VTT Finland | 2013
The deposit covers about 1,380 reagents; below is a part drawn at random. 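One array per condition without replicates; hydroxyurea arrays received 2 mM for 16 h plus 3 h recovery.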 The numbers tell different reagents against one gene apart. Not all columns of the deposit are shown.

Screen: 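Knock-downs that leave cyclin E-high cells sensitive to replication stress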 (primary screen)
Cell system: human U-2 OS bone cancer cells, parental and a cyclin E (CCNE1) overexpressing line
Knock-down reagent: single siRNA against human genes, 1 µM siRNA in the printed spot mix
Time to read-out: 67 h
Challenge: half the arrays: hydroxyurea 2 mM for 16 h, then 3 h recovery; other arrays untreated
Read-out: 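DNA synthesis measured as imaged EdU uptake per nucleus (DAPI) at 67 h, normalised to subgrid median and given as z-score versus non-targeting controls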
Scale: EdU z-score, cyclin E line, hydroxyurea: higher = more DNA synthesis than non-targeting controls

{"gene knocked down": "NCAPH (non-SMC condensin I complex subunit H)", "siRNA no.": 1, "EdU z-score, cyclin E line, hydroxyurea": -0.279}
{"gene knocked down": "NCAPH (non-SMC condensin I complex subunit H)", "siRNA no.": 2, "EdU z-score, cyclin E line, hydroxyurea": 0.833}
{"gene knocked down": "RINT1 (RAD50 interactor 1)", "siRNA no.": 1, "EdU z-score, cyclin E line, hydroxyurea": -2.76}
{"gene knocked down": "RINT1 (RAD50 interactor 1)", "siRNA no.": 2, "EdU z-score, cyclin E line, hydroxyurea": -1.73}
{"gene knocked down": "POLE (DNA polymerase epsilon, catalytic subunit)", "siRNA no.": 1, "EdU z-score, cyclin E line, hydroxyurea": -0.651}
{"gene knocked down": "POLE (DNA polymerase epsilon, catalytic subunit)", "siRNA no.": 2, "EdU z-score, cyclin E line, hydroxyurea": 1.16}
{"gene knocked down": "TIPIN (TIMELESS interacting protein)", "siRNA no.": 1, "EdU z-score, cyclin E line, hydroxyurea": -0.582}
{"gene knocked down": "TIPIN (TIMELESS interacting protein)", "siRNA no.": 2, "EdU z-score, cyclin E line, hydroxyurea": -0.282}
{"gene knocked down": "POLE2 (DNA polymerase epsilon 2, accessory subunit)", "siRNA no.": 1, "EdU z-score, cyclin E line, hydroxyurea": -0.801}
{"gene knocked down": "POLE2 (DNA polymerase epsilon 2, accessory subunit)", "siRNA no.": 2, "EdU z-score, cyclin E line, hydroxyurea": -0.713}
{"gene knocked down": "TK1 (thymidine kinase 1)", "siRNA no.": 1, "EdU z-score, cyclin E line, hydroxyurea": -1.75}
{"gene knocked down": "TK1 (thymidine kinase 1)", "siRNA no.": 2, "EdU z-score, cyclin E line, hydroxyurea": 1.08}
{"gene knocked down": "E4F1 (E4F transcription factor 1)", "siRNA no.": 1, "EdU z-score, cyclin E line, hydroxyurea": -2.06}
{"gene knocked down": "E4F1 (E4F transcription factor 1)", "siRNA no.": 2, "EdU z-score, cyclin E line, hydroxyurea": 0.705}

Reprinted from the listing, 3 entries:
{"gene knocked down": "POLE (DNA polymerase epsilon, catalytic subunit)", "siRNA no.": 2, "EdU z-score, cyclin E line, hydroxyurea": 1.16}
{"gene knocked down": "TIPIN (TIMELESS interacting protein)", "siRNA no.": 1, "EdU z-score, cyclin E line, hydroxyurea": -0.582}
{"gene knocked down": "TIPIN (TIMELESS interacting protein)", "siRNA no.": 2, "EdU z-score, cyclin E line, hydroxyurea": -0.282}

Next entries follow.
{"gene knocked down": "RASSF8 (Ras association domain family member 8)", "siRNA no.": 1, "EdU z-score, cyclin E line, hydroxyurea": -0.567}
{"gene knocked down": "RASSF8 (Ras association domain family member 8)", "siRNA no.": 2, "EdU z-score, cyclin E line, hydroxyurea": -0.0254}
{"gene knocked down": "BCL3 (BCL3 transcription coactivator)", "siRNA no.": 1, "EdU z-score, cyclin E line, hydroxyurea": -3.17}
{"gene knocked down": "BCL3 (BCL3 transcription coactivator)", "siRNA no.": 2, "EdU z-score, cyclin E line, hydroxyurea": 1.35}
{"gene knocked down": "CCDC178 (coiled-coil domain containing 178)", "siRNA no.": 1, "EdU z-score, cyclin E line, hydroxyurea": -0.354}
{"gene knocked down": "CCDC178 (coiled-coil domain containing 178)", "siRNA no.": 2, "EdU z-score, cyclin E line, hydroxyurea": 1.34}
{"gene knocked down": "ERCC4 (ERCC excision repair 4, endonuclease catalytic subunit)", "siRNA no.": 1, "EdU z-score, cyclin E line, hydroxyurea": -1.38}
{"gene knocked down": "ERCC4 (ERCC excision repair 4, endonuclease catalytic subunit)", "siRNA no.": 2, "EdU z-score, cyclin E line, hydroxyurea": -0.208}
{"gene knocked down": "SETD2 (SET domain containing 2, histone lysine methyltransferase)", "siRNA no.": 1, "EdU z-score, cyclin E line, hydroxyurea": 0.0623}
{"gene knocked down": "SETD2 (SET domain containing 2, histone lysine methyltransferase)", "siRNA no.": 2, "EdU z-score, cyclin E line, hydroxyurea": 0.707}
{"gene knocked down": "MACROH2A1 (macroH2A.1 histone)", "siRNA no.": 1, "EdU z-score, cyclin E line, hydroxyurea": -1.74}
{"gene knocked down": "MACROH2A1 (macroH2A.1 histone)", "siRNA no.": 2, "EdU z-score, cyclin E line, hydroxyurea": -1.08}
{"gene knocked down": "MLH1 (mutL homolog 1)", "siRNA no.": 1, "EdU z-score, cyclin E line, hydroxyurea": -1.11}
{"gene knocked down": "MLH1 (mutL homolog 1)", "siRNA no.": 2, "EdU z-score, cyclin E line, hydroxyurea": -0.817}
{"gene knocked down": "NEDD1 (NEDD1 gamma-tubulin ring complex targeting factor)", "siRNA no.": 1, "EdU z-score, cyclin E line, hydroxyurea": 0.0187}
{"gene knocked down": "NEDD1 (NEDD1 gamma-tubulin ring complex targeting factor)", "siRNA no.": 2, "EdU z-score, cyclin E line, hydroxyurea": 0.715}
{"gene knocked down": "DUT (deoxyuridine triphosphatase)", "siRNA no.": 1, "EdU z-score, cyclin E line, hydroxyurea": 0.717}
{"gene knocked down": "DUT (deoxyuridine triphosphatase)", "siRNA no.": 2, "EdU z-score, cyclin E line, hydroxyurea": 0.737}
